# Assay results reported in publication PMC12040169 (PLOS Biology, 2025).
# This is one part of the list.
# Test system: T1, CTL2-GFP (C. trachomatis L2/434/Bu, GFP-expressing)
# T1 construct: L2/434/Bu, GFP-expressing
# Design: species or system HeLa; Intracellular C. trachomatis growth in HeLa cells, bulk GFP fluorescence relative to DMSO
# Conditions: bulk GFP, single well; 28.5 h, 10 µM; inhibitor
row,SMILES,% of control remaining [%]
1,CN1CCN(CC(O)COc2ccccc2)CC1 (stereo not drawn) [CBK278191G],125.912
2,CC(C)CC(NC(=O)Cc1cccc(O)c1)c1nnc2n1CCNCC2 (stereo not drawn) [CBK307183],135.16
3,COc1ccc(C)cc1-n1ccc(C(=O)NC(C)(C)C)n1 [CBK306315],157.118
4,Cc1cc(C)n(CCC(=O)N2C[C@@H]3CCCCN(CC4CC4)[C@@H]3C2)n1 [CBK285505],115.072
5,CN(C(=O)CCn1c(=O)oc2cc(Cl)ccc21)C1CCNC1 (stereo not drawn) [CBK304310C],126.225
6,COc1ccc2c(c1)C(C[C@H]1CN(C(=O)C3CC3)CC[C@H]1CC(=O)O)=NCC2 [CBK289157],133.031
7,Cc1ccc(CN2CCCN(C(=O)Cn3nc4ccccn4c3=O)CC2)cc1 [CBK297768],164.867
8,CCn1cc(C(=O)O)c(=O)c2cc(F)c(N3CCN(C(=S)Nc4cc(OC)ccc4OC)CC3)cc21 [CBK265831],124.632
9,CCCCC(O)(Cc1onc(-c2ccccc2)c1C(=O)N(C)C)c1ccc(CN2CCCC2)cc1 (stereo not drawn) [CBK034415T],72.5135
10,CN(C)CCNC(=O)c1cccc(-c2cnc3[nH]c(=O)n(C4CCCCC4)c3n2)c1 [CBK064191],173.238
11,Cc1ccc(OCC(=O)Nc2cccc(C(=O)O)c2)cc1 [CBK287023],111.237
12,Cc1nc2c(c(=O)[nH]1)CC[C@@H]1CN(C(=O)Cc3cccc(F)c3)C[C@H]21 [CBK284413],110.453
13,COC(=O)c1ccc(-c2cn3ccnc3c(NCc3ccncc3)n2)cc1 [CBK066734],128.75
14,COc1cnc(/C=C\c2ccccc2)c(NC(=O)c2ccco2)n1 [CBK145361],171.913
15,Cc1ccc2c(c1)nc(-c1ccc(O)cc1)n2Cc1ccc(O)cc1 [CBK291226],74.2613
16,O=C(Cc1nnn[nH]1)Nc1cccc(-c2nn[nH]n2)c1 [CBK160122],113.307
17,Cc1nnc(SCc2ccc(CSc3nnc(C)c(=O)[nH]3)cc2)[nH]c1=O [CBK268085],127.935
18,COC(=O)CCC(=O)Nc1cccc([N+](=O)[O-])c1 [CBK261345],111.287
19,COCCNC(=O)N1CCN(CCc2ccccc2)CC1 [CBK158909],186.598
20,O=C(Cn1c(=O)cc(O)c2ccccc21)Nc1cccc(F)c1 [CBK291242],128.67
21,CCc1nc2ccc(C(=O)N3CCN(S(=O)(=O)CC)CC3)cn2c1N(C)CC [CBK145520],113.662
22,Clc1cc2nc(OC3CCCNC3)c(N3CCCC3)nc2cc1Cl (stereo not drawn) [CBK113454],108.682
23,N#CCCCN1CCC(Oc2nccnc2OCCN2C(=O)CCC2=O)CC1 [CBK084349],118.981
24,COc1ccc(Cl)cc1N1CCN(CC(=O)Nc2ccc(F)c(Cl)c2)CC1 [CBK126417],95.1895
25,CCSc1nc(=O)c2c(n1C)NC(=O)CC2c1ccccc1 (stereo not drawn) [CBK307541],89.5352
26,O=c1c2c([nH]c3nc(NCc4ccc(OCc5ccccc5)cc4)nn13)CCC2 [CBK268044],124.588

row,SMILES,% of control remaining [%]
1,CCNC(=O)N[C@H]1CO[C@H]2[C@@H]1OC[C@@H]2Nc1nccc(-c2ccc(OC)cc2)n1 [CBK289528],116.736
2,CCCCC(=O)/N=C(\N)Nc1nc2ccccc2o1 [CBK287937],14.9301
3,Cc1ccc(Oc2ccc([N+](=O)[O-])cc2F)c(Br)c1 [CBK002821],114.798
4,Cc1cc(C(F)(F)F)n(CC(C)CNC(=O)Cc2csc(C)n2)n1 (stereo not drawn) [CBK306733],113.877
5,C/C(=N\N=C1\N=C(O)C(CC(=O)O)S1)c1ccco1 (stereo not drawn) [CBK021973],130.358
6,Cc1cc(F)ccc1OC1(C(=O)O)CCN(Cc2ccoc2)CC1 [CBK307187],101.768
7,Nc1ccc(-c2cncc(NCCc3ccccn3)n2)cc1 [CBK065632],160.557
8,Clc1ccc(COc2ccc(/C=N/Nc3nc(N4CCOCC4)nc(N4CCOCC4)n3)cc2)c(Cl)c1 [CBK262061],104.441
9,Cc1ccccc1C(NC(=O)C1CCN(C(=O)OCc2ccccc2)CC1)c1ccc(=O)[nH]c1 (stereo not drawn) [CBK083200],109.535
10,c1ccc2c(Sc3nccnc3N3CCCC3)cccc2c1 [CBK089527],102.231
11,O=C1CC(C(=O)N2CCN(c3ncccn3)CC2)c2ccccc21 (stereo not drawn) [CBK144505],103.289
12,CN(Cc1ccccc1)Cc1cc(CC2(NCc3ccccc3)COC2)no1 [CBK289645],129.861
13,O=C(CN1CCC2(CC1)CN(CCO)c1ccccc12)Nc1ccc(F)c(Cl)c1 [CBK126761],106.301
14,FC(F)(F)c1ccncc1-n1cccc1 [CBK021909],116.505
15,O=C(CSc1nnc(-c2cccnc2)n1-c1ccccc1)Nc1ccc(Br)cc1 [CBK265203],114.87
16,CN1CCN(c2cc(N3CCN(C(=O)c4ccc(F)cc4F)CC3)c([N+](=O)[O-])cc2F)CC1 [CBK265280],117.58
17,O=C(Nc1nn(Cc2ccc(Oc3ccccc3)cc2)c2ccccc12)c1ccno1 [CBK048224],79.1251
18,O=C(NCC1CCCO1)c1ccc(-n2ccnc2)c(-n2cccc2)c1 (stereo not drawn) [CBK285356],141.331
19,COc1ccc(CC(=O)Nc2nc(OC)cnc2-c2ccoc2)cc1 [CBK145435],128.686
20,CCCOc1ccc(C(N)CC(=O)O)cc1 (stereo not drawn) [CBK261360],122.845
21,COc1ccccc1C1(O)CCN(CC(O)c2ccc(C(C)(C)C)cc2)CC1 (stereo not drawn) [CBK286335],91.8009
22,Cn1nc(C(=O)NCc2ccccc2)cc1C(=O)NCc1ccccc1 [CBK270004],111.469
23,O=C(CSc1ccccn1)Nc1ccccc1-c1ccccc1 [CBK263553],80.674
24,C=Cn1ncc(CN(CCCn2ccnc2)CC2CC=CCC2)c1C (stereo not drawn) [CBK283219],124.51
25,CC(C)Oc1ncc(C(=O)Nc2cnn(CC(N)=O)c2)cc1Cl [CBK306311],80.0962
26,CC(C)(CO)CNc1cncc(-c2cccnc2)n1 [CBK037881],116.695

# Random excerpt: 5 compounds from above.
row,SMILES,% of control remaining [%]
19,COc1ccc(CC(=O)Nc2nc(OC)cnc2-c2ccoc2)cc1 [CBK145435],128.686
12,CN(Cc1ccccc1)Cc1cc(CC2(NCc3ccccc3)COC2)no1 [CBK289645],129.861
2,CCCCC(=O)/N=C(\N)Nc1nc2ccccc2o1 [CBK287937],14.9301
1,CCNC(=O)N[C@H]1CO[C@H]2[C@@H]1OC[C@@H]2Nc1nccc(-c2ccc(OC)cc2)n1 [CBK289528],116.736
5,C/C(=N\N=C1\N=C(O)C(CC(=O)O)S1)c1ccco1 (stereo not drawn) [CBK021973],130.358

# Following part.

row,SMILES,% of control remaining [%]
1,CCOc1cc(C(=S)N2CCOCC2)ccc1OCc1ccccc1 [CBK027466],118.186
2,C=CCN1C(=O)C2(Nc3ccccc3C(=O)N2c2ccc(Cl)cc2)c2ccccc21 (stereo not drawn) [CBK093474],79.3878
3,CC(=O)N1CCc2ccc(NC(=O)c3cc(-c4ccc(C(=O)N5CCOCC5)cc4)cnc3N)cc21 [CBK160205],113.024
4,Nc1cc(N)nc(SCc2cccnc2)n1 [CBK267459],144.89
5,CC(Cc1ccccn1)N(C)C(=O)c1cnn(-c2ccc(F)cc2)c1 (stereo not drawn) [CBK283316],118.546
6,COc1ccc([C@@]23CC[C@@H](NC(=O)c4ccc5c(c4)OC(F)(F)O5)C[C@@H]2N(C)CC3)cc1OC [CBK076658T],110.305
7,CSCCC(=O)Nc1cc(C)nc2ccccc12 [CBK122729],103.624
8,O=C(C1CCCCC1)N1CCCC1c1n[nH]cc1-c1ccncc1 (stereo not drawn) [CBK283434],139.609
9,CN(C)Cc1c(O)ccc2occ(C(O)c3ccccc3)c12 (stereo not drawn) [CBK261313],100
10,Cc1cc(Cl)c(S(=O)(=O)Nc2ccon2)cc1OCC(N)=O [CBK266589],177.846
11,CSc1ccc(-c2nc(NC(=O)C(C)C)cc3ccccc23)cc1 [CBK085735],125.531
12,CCN1c2ccc(-c3cncn3CC(=O)NC(C)(C)C)cc2CC1C (stereo not drawn) [CBK281815],130.502
13,O=C(c1cc[nH]n1)N1CCCCC1c1ncc(-c2cccc(F)c2)[nH]1 (stereo not drawn) [CBK291217],129.243
14,CCc1[nH]nc(O)c1Cc1c(Cl)cccc1Cl [CBK105304],204.202
15,CN1CCC(N2CCN(C(=O)c3cncc(-c4ccc(C(=O)N5CCOCC5)cc4)c3)CC2)CC1 [CBK158600],85.3685
16,CC(=O)c1cc(CN(C)C(C)c2ccncn2)cs1 (stereo not drawn) [CBK307470],125.455
17,O=C(CC1CC1)Nc1cc(-c2ccncc2)c[nH]c1=O [CBK116585],118.323
18,COc1ccc(C(=O)NCCc2ccc(S(N)(=O)=O)cc2)cc1[N+](=O)[O-] [CBK264335],122.937
19,CC(=O)c1cc(CCCO)n(Cc2ccco2)c1C [CBK022013],101.202
20,Cn1c(CN2C[C@H](O)C[C@H]2c2nc(-c3ccccc3)no2)nc2ccccc21 [CBK288834],139.631
21,CCN(C(=O)c1ccncc1)C(CC1CCCCC1)c1ccccc1 (stereo not drawn) [CBK061674],95.688
22,O=[N+]([O-])c1ccccc1/C=N/Nc1nnn[nH]1 [CBK260971],73.4909
23,O=C1N=C(NC2CCCC2)OC12CCN(Cc1ccccc1)CC2 [CBK115430],145.696
24,CCn1c(COc2ccccc2)nnc1Sc1ccc([N+](=O)[O-])cc1C=O [CBK267888],60.9632
25,Cc1nn2c(COc3ccc(NC(=O)C4CCCCC4)cc3)nnc2c2ccccc12 [CBK268528],89.3759
26,NC(=O)CN1CCN(c2nccnc2OCc2ccc(Cl)c(Cl)c2)CC1 [CBK083079T],61.0558
